Assay results reported in patent publication US20070081998A1.
Results are given in words; binding and its absence hold for the method and conditions named. Some results given as binding are weak or reduced against the parent protein; the word gives no strength.

The chains behind the UniProt entries cited, without tags or fusion partners. Residues count along the entry.
UniProt P05067, residues 672-713: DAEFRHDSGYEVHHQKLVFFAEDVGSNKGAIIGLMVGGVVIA

Target: Aβ in dense core and diffuse plaques in human Alzheimer's Disease brain tissue (human) (UniProt P05067)
Assay: immunohistochemistry on human Alzheimer's Disease brain tissue, biotinylated antibody

- binding: binds
B1: Hu20C2A3 (veneered version of clone A3, IgG2m4 isotype) (antibody, V domains shown)
VH: QVTLKESGPGLLKPTQTLTLTCTLSGFSLSTSGMGVGWFRQPPGKGLEWLAHIWWDDDKSYNPSLKSRLTISKDTSKNQVVLTITNVDPVDTATYYCARRQLGTRGTDAMDYWGQGTTVTVSS
VL: DVVMTQTPLSLPVTPGQPASISCRSSQSILHSNGNTYLEWYLQKPGQSPQLLIYKVSNRFSGVPDRFSGSGSGTDFTLKISRVEAEDVGVYYCLQTTRVPLTFGQGTKLEIKR
